Source: paper PMC9281121
Changes are numbered by the printed parent chain. Results are given in words; binding and its absence hold for the method and conditions named. Binding seen in cells or lysates may run through a third protein. Some results given as binding are weak or reduced against the parent protein; the word gives no strength. Sequences can lack the tags named with a protein.

Chains of the proteins cited; added tags and fusions are not shown.
UniProt O43791: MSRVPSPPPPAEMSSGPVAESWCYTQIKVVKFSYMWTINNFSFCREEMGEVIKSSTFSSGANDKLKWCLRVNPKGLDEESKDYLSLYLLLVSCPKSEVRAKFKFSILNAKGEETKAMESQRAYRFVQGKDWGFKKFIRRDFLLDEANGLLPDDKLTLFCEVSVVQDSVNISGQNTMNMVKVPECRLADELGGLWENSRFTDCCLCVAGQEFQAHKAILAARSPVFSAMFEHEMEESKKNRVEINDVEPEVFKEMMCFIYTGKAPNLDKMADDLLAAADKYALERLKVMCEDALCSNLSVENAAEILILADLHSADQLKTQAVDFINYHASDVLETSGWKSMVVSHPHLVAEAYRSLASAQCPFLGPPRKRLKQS

Assays:
[1] = target: T1, Chromobox protein homolog 6 (CBX6), mutated (DARSS to DARAA), HA-tagged (UniProt O95503); assay: co-IP; Myc-SPOP and wild-type or mutated HA-CBX6 transfected into HEK293T; lysates in Sucrose-NP40 lysis buffer (25 mM Tris-Cl pH 7.5, 150 mM NaCl, 0.5% NP40) incubated with anti-HA agarose beads 4 h in the cold room; Western blot with anti-HA and anti-SPOP
T1 sequence: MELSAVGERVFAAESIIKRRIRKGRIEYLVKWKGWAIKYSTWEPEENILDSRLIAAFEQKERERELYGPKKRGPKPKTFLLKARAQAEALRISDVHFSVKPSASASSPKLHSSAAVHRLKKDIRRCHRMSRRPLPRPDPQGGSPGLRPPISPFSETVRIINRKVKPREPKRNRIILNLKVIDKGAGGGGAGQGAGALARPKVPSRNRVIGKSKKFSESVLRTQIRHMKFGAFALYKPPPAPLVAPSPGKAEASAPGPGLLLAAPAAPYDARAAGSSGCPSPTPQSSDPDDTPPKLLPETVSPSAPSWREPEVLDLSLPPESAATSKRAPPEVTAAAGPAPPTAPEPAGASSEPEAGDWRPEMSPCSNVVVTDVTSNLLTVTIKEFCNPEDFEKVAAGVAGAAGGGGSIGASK

[2] = target: T2, Chromobox protein homolog 6 (CBX6), wild type, HA-tagged (UniProt O95503); assay: as above
T2 sequence: T1 sequence with A272S, A273S

binding [1]: binds
binding [2]: binds
Substance: SPOP, Myc-tagged (from UniProt O43791 1-374)
